Test results taken from paper PMC11856031.
Results are given in words; binding and its absence hold for the method and conditions named. In cells and extracts the contact can be indirect. Some entries that bind do so weakly or less than the wild type.

Sequences of proteins named here, by UniProt entry; tags and fusion partners are left off. Residues count along the entry.
UniProt Q96EB6: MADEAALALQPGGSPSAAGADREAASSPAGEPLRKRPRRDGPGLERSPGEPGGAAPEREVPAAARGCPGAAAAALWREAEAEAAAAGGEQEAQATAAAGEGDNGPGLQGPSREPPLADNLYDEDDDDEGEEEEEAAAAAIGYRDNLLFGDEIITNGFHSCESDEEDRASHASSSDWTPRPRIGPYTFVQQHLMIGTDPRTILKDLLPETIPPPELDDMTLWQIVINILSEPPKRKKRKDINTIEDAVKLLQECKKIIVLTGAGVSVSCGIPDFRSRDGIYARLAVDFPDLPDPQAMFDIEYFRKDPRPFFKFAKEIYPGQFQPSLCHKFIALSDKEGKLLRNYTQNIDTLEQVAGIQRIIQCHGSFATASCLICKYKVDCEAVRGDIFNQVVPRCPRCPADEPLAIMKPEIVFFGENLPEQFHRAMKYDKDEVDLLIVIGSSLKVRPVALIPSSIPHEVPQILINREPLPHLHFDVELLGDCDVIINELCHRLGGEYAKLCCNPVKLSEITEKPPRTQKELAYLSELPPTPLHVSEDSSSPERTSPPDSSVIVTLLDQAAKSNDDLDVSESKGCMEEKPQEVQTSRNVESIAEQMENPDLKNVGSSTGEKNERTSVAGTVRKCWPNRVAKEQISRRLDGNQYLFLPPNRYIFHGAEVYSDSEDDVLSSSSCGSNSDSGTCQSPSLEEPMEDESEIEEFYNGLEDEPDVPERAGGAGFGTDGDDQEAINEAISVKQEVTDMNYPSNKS
UniProt Q9BPX6, residues 34-476: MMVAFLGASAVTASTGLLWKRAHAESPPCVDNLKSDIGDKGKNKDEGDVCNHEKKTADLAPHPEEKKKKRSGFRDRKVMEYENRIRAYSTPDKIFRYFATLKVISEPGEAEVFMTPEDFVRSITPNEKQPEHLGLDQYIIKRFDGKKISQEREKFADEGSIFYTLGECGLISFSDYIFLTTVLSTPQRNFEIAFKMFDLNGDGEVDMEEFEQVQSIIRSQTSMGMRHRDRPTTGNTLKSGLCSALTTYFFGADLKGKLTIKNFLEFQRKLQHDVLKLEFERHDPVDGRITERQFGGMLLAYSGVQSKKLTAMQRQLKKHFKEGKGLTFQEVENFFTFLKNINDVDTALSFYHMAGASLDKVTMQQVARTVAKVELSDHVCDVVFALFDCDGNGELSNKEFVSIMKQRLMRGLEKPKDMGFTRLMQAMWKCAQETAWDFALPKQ

What was measured:
GST-SIRT1 = GST-SIRT1 (UniProt Q96EB6); experiment: pull-down; GST-SIRT1 or GST on Glutathione Sepharose 4B beads mixed with ultrasonic lysate of HeLa cells transfected with MICU1-HA (24 h); bound proteins detected by immunoblot with anti-HA and anti-GST; only the target purified
SIRT1-flag = SIRT1-flag (UniProt Q96EB6); experiment: co-IP; HeLa cells transfected with SIRT1-flag plus MICU1-HA (controls: SIRT1-flag plus pCMV-HA, pCMV-tag4a plus MICU1-HA), lysed after 24 h; 2 ug Flag or SIRT1 antibody overnight at 4 C, protein A agarose; Western blot
[1] = target: T1, SIRT1 (endogenous, rat cortical neurons) (rat (endogenous in primary cortical neurons)); experiment: co-IP; endogenous proteins in lysates of rat cortical neurons cultured for 7 days; immunoprecipitation with SIRT1 antibody, Western blot with anti-SIRT1 and anti-MICU1
T1 sequence: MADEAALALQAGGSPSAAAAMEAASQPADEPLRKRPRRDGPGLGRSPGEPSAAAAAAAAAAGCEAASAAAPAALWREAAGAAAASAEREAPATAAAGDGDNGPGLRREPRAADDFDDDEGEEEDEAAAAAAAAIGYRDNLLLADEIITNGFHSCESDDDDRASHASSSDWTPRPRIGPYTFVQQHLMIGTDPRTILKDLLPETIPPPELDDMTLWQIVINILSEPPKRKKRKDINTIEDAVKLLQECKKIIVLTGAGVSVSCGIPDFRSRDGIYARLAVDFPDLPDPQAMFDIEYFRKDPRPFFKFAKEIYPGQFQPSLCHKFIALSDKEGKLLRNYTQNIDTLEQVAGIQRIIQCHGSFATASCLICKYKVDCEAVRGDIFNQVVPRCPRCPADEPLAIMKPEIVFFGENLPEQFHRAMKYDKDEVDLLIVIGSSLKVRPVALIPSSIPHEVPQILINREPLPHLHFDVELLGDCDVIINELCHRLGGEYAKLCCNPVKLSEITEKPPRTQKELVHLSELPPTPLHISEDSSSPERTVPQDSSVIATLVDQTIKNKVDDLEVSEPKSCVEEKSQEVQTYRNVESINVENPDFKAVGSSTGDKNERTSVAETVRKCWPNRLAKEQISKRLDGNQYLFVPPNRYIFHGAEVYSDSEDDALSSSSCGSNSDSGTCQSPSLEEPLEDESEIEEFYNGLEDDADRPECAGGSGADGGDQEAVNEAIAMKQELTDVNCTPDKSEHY

**Q.** Which binding (GST-SIRT1) does the source give for MICU1-HA (from UniProt Q9BPX6 34-476) here?
**A.** The binding was “binds”.

**Q.** What about the binding (SIRT1-flag) of the same molecule?
**A.** Its binding is “binds”.

B1: MICU1 (endogenous, rat cortical neurons) (protein, UniProt Q6P6Q9 34-477)
chain: MLVAFLGASAVTASTGLLWKKAHAESPPSVNSKKTDAGDKGKSKDTREVSSHEGSAADTAAEPYPEEKKKKRSGFRDRKVMEYENRIRAYSTPDKIFRYFATLKVINEPGETEVFMTPQDFVRSITPNEKQPEHLGLDQYIIKRFDGKKIAQEREKFADEGSIFYTLGECGLISFSDYIFLTTVLSTPQRNFEIAFKMFDLNGDGEVDMEEFEQVQSIIRSQTSMGMRHRDRPTTGNTLKSGLCSALTTYFFGADLKGKLTIKNFLEFQRKLQHDVLKLEFERHDPVDGRISERQFGGMLLAYSGVQSKKLTAMQRQLKKHFKDGKGLTFQEVENFFTFLKNINDVDTALSFYHMAGASLDKVTMQQVARTVAKVELSDHVCDVVFALFDCDGNGELSNKEFVSIMKQRLMRGLEKPKDMGFTRLMQAMWKCAQETAWDFALPK
**Q.** B1 was tested. Which binding [1] did it give?
**A.** The binding was “binds”.
